{"source": "patent US20250025576A1", "about": "“CELL DELIVERY COMPOSITIONS AND METHODS OF USE THEREOF” (The Regents of the University of California, priority 2021, published 2025)", "key": {"[1]": {"test_system": "β2M locus in human primary CD4+ T cells", "experiment": "Peptide screen: Cas9-mediated KO at the β2M locus, flow cytometry", "assay_type": "cell-based", "conditions": "S. pyogenes Cas9 (one NLS) RNP co-incubated with peptide at 5 μM or 10 μM; compared with INF7-TAT", "experimental": "Primary human CD4+ T cells were isolated from leukopacks (purchased from Stemcell Tech or Allcells Inc) PBMCs using negative isolation (Stem Cell Technologies). Cells were either used fresh or stored frozen at −80° C. Cells were suspended in growth media (Xvivo-15+5% FBS+55 μM β-mercaptoethanol (βME)+10 μM N-acetyl cysteine) at 1.0×10^6 cells/mL. Cells were stimulated for 48 hours with CD3/CD28 Dynabeads (Gibco CAT #11131D) at 1 bead/cell ratio, 200 U/mL human IL-2 (Proleukin), 5 ng/ml IL-7 (Peptrotech CAT #200-07), 5 ng/ml IL-15 (Peptrotech CAT #200-15). […] When Cas9 RNP delivery complexes were ready, cells were centrifuged at 300×g, resuspended in OptiMEM and placed in 96-well round-bottom culture plates, with 200×10^3 cells/well. […]\nFIG. 3. Screening of peptides 1-37 for Cas9-mediated KO at the β2M locus in human primary CD4+ T cells, as measured by flow cytometry. prA-Cas9-1×NLS with OKT3 was combined with peptides at either 5 μM or 10 μM concentration. […]\nFIG. 5A and FIG. 5B. (A) Screening of peptides #40-60 (as well as select comparator peptides from the screen of “parent peptides” #1-37) for Cas9-mediated KO at the ß2M locus in human primary CD4+ T cells, as measured by flow cytometry. prA-Cas9-1×NLS was combined with anti-CD3 antibody OKT3 and applied to cells with peptides at 10 µM concentration. […]"}, "[2]": {"test_system": "erythrocyte-specific BCL11a enhancer locus in CD34+ HSPCs", "experiment": "Cas9-mediated NHEJ at BCL11a enhancer locus, deep sequencing", "assay_type": "cell-based, human", "conditions": "Cas9-3×NLS RNP, peptide 5 μM or 10 μM, no targeting antibody"}}, "data": [{"sequence": "KLFEAIEGFIENGWEGMIDGWYGYGRKKRRQRR [peptide 19, the G1K variant of INF7-TAT]", "values": [{"measurement": "Cas9-mediated KO at the β2M locus (editing efficiency)", "setting": "[1]", "result": "edits T cells much more efficiently than INF7-TAT"}, {"measurement": "Cas9-mediated NHEJ at BCL11a enhancer locus (editing efficiency)", "setting": "[2]", "result": "edits CD34+ HSPCs much more efficiently than INF7-TAT"}]}]}
